Assay results published in patent US11976080B1, “Benzofuro[3,2-c]chromen-6-one compounds as antibacterial agents” (King Faisal University, priority 2023, dated 2024).
Values after ≈ are worked out from the molar mass of the structure shown.

Tests used:
Experiment in all cases: In vitro antibacterial activity (CLSI dilution MIC)
Type in all cases: cell-based
[1] = tested on: Staphylococcus aureus ATCC BAA-1556 (MERSA resistant); details: ATCCBAA1556
[2] = tested on: Enterococcus faecium ATCC 35667; details: ATCC35667
[3] = tested on: Staphylococcus epidermidis
[4] = tested on: Enterococcus faecium ATCC 51559 (VRE resistant)
[5] = tested on: Escherichia coli MTCC 443; details: MTCC443
[6] = tested on: Staphylococcus aureus ATCC 29213; details: ATCC29213

CN[C@H](CC(C)C)C(=O)N[C@H]1C(=O)N[C@@H](CC(N)=O)C(=O)N[C@H]2C(=O)N[C@H]3C(=O)N[C@H](C(=O)N[C@H](C(=O)O)c4cc(O)cc(O)c4-c4cc3ccc4O)[C@H](O)c3ccc(c(Cl)c3)Oc3cc2cc(c3O[C@@H]2O[C@H](CO)[C@@H](O)[C@H](O)[C@H]2O[C@H]2C[C@](C)(N)[C@H](O)[C@H](C)O2)Oc2ccc(cc2Cl)[C@H]1O [Vancomycin, reference compound]
MIC [1]: 1 µg/mL (≈ 0.69 µM) | MIC [2]: 0.5 µg/mL (≈ 0.345 µM) | MIC [3]: 1 µg/mL (≈ 0.69 µM) | MIC [4]: > 128 µg/mL | MIC [5]: > 128 µg/mL | MIC [6]: 1 µg/mL (≈ 0.69 µM)
